# Measurements as given in the supplement of paper PMC11060735.
# Counter-ions that a name gives are not always drawn. The full ranking holds about 1,800 compounds; the median of “GFP- (p16Ink4a-) cell count relative to negative-control wells” is about 0.99, and the lowest 2% start at about 0.5. The list shows a part of the results.
# Test system: mouse p16Ink4a+/- lung fibroblasts (INKBRITE, bleomycin-injured)
# Assay: GFP- (p16Ink4a-) cell count relative to negative-control wells (fold of vehicle); higher = more p16Ink4a- cells surviving
# Details: 1 µM; 3 days
row,SMILES,GFP-
1,CC(=O)N1CCN(c2ccc(OC[C@H]3CO[C@](Cn4ccnc4)(c4ccc(Cl)cc4Cl)O3)cc2)CC1 [Ketoconazole],1.15
2,"O=c1oc2cc(O)ccc2s1 [Thioxolone, Tioxolone]",1.01
3,CC(C)[C@H](O)C(=O)N[C@@H](C)C(=O)N[C@@H]1C(=O)N(C)CCc2ccccc21 [Semagacestat],1.01
4,CC(C)(C)CC(C)(C)c1ccc(OCCOCC[N+](C)(C)Cc2ccccc2)cc1 [Benzethonium Chloride],1.01
5,COc1c(C)cnc(Cn2cnc3c(Cl)nc(N)nc32)c1C,0.671
6,CC(C)OC(=O)OCOP(=O)(CO[C@H](C)Cn1cnc2c(N)ncnc21)OCOC(=O)OC(C)C [Tenofovir Disoproxil],1.1
7,COc1ccc(CCC(=O)Nc2nc3ccc(Cl)cc3s2)cc1OC,0.946
8,N=C(N)Nc1nc(CSCCC(=N)NS(N)(=O)=O)cs1 [Famotidine],1.11
9,CC(C)(C)NC(=O)[C@H]1CC[C@H]2[C@@H]3CC[C@H]4NC(=O)C=C[C@]4(C)[C@H]3CC[C@]12C [Finasteride],1.04
10,CCc1cc(Nc2nccc(-c3c(-c4ccc(OC)c(C(=O)Nc5c(F)cccc5F)c4)nc4ccccn34)n2)c(OC)cc1N1CCC(N2CCN(S(C)(=O)=O)CC2)CC1,1.03
11,"CN(CCOc1ccc(CC2SC(=O)NC2=O)cc1)c1ccccn1 (configuration not stated) [Rosiglitazone, Rosiglitazone Maleate]",0.942
12,Cc1cc2c(cc1CC(=O)c1sccc1S(=O)(=O)Nc1onc(C)c1Cl)OCO2 [Sitaxentan],0.724
13,CCCCC1C(=O)N(c2ccccc2)N(c2ccccc2)C1=O [Phenylbutazone],1.13
14,CC(=O)OCC(=O)[C@@]1(O)CC[C@H]2[C@@H]3CCC4=CC(=O)CC[C@]4(C)[C@H]3C(=O)C[C@@]21C [Cortisone acetate],0.809
15,CCN1CCN(c2cc3c(cc2F)c(=O)c(C(=O)O)cn3C2CC2)CC1 [Enrofloxacin],1.14
16,Cc1ccc(C(=O)Cn2c3c(sc2=N)CCCC3)cc1 [Pifithrin],1.03
17,Cc1c(Nc2ncccc2C(=O)O)cccc1C(F)(F)F [Flunixin Meglumine],0.939
18,O=c1cc(N2CCOCC2)oc2c(-c3ccccc3)cccc12,0.978
19,Nc1c(CC(=O)O)cccc1C(=O)c1ccccc1 [Amfenac Sodium Monohydrate],0.787
20,C[C@H](CS)C(=O)N1CCC[C@H]1C(=O)O [Captopril],0.691
21,CC1(COc2ccc3c(c2)ncn3-c2ccc3cccc(N4CCC(N)CC4)c3n2)COC1 [Crenolanib],0.948
22,Cc1cc(Nc2ncnc3ccc(-c4ccc(CNCCS(C)(=O)=O)o4)cc23)ccc1Oc1ccn2ncnc2c1 [HER2-Inhibitor-1],0.989
23,CN(C)CCCCC(=O)Nc1ccc(NC(=S)NC(=O)c2ccc(C(C)(C)C)cc2)cc1 [Tenovin-6],0.854
24,CC(C)Oc1ccc(-c2cnc3c(-c4ccnc5ccccc45)cnn3c2)cc1,0.966
25,Cc1coc2c1C(=O)C(=O)c1c-2ccc2c(C)cccc12 [Tanshinone I],1.03
26,NCCc1ccc(O)c(O)c1 [Dopamine],1.02
27,Cc1ccccc1C(=O)Nc1ccc(C(=O)N2CCCC(O)c3cc(Cl)ccc32)c(C)c1 (configuration not stated) [Tolvaptan],0.996

# Among those listed so far, 3 contain fluorine:
row,SMILES,GFP-
10,CCc1cc(Nc2nccc(-c3c(-c4ccc(OC)c(C(=O)Nc5c(F)cccc5F)c4)nc4ccccn34)n2)c(OC)cc1N1CCC(N2CCN(S(C)(=O)=O)CC2)CC1,1.03
15,CCN1CCN(c2cc3c(cc2F)c(=O)c(C(=O)O)cn3C2CC2)CC1 [Enrofloxacin],1.14
17,Cc1c(Nc2ncccc2C(=O)O)cccc1C(F)(F)F [Flunixin Meglumine],0.939
